Measured values as given in article doi:10.1101/2023.02.25.530019.
Results are given in words; binding and its absence hold for the method and conditions named. Binding seen in cells or lysates may run through a third protein. Some results given as binding are weak or reduced against the parent protein; the word gives no strength.

The chains behind the UniProt entries cited, without tags or fusion partners. Where a name states a change or a piece, a line headed by the entry shows the natural chain unless it says otherwise.
UniProt O75533: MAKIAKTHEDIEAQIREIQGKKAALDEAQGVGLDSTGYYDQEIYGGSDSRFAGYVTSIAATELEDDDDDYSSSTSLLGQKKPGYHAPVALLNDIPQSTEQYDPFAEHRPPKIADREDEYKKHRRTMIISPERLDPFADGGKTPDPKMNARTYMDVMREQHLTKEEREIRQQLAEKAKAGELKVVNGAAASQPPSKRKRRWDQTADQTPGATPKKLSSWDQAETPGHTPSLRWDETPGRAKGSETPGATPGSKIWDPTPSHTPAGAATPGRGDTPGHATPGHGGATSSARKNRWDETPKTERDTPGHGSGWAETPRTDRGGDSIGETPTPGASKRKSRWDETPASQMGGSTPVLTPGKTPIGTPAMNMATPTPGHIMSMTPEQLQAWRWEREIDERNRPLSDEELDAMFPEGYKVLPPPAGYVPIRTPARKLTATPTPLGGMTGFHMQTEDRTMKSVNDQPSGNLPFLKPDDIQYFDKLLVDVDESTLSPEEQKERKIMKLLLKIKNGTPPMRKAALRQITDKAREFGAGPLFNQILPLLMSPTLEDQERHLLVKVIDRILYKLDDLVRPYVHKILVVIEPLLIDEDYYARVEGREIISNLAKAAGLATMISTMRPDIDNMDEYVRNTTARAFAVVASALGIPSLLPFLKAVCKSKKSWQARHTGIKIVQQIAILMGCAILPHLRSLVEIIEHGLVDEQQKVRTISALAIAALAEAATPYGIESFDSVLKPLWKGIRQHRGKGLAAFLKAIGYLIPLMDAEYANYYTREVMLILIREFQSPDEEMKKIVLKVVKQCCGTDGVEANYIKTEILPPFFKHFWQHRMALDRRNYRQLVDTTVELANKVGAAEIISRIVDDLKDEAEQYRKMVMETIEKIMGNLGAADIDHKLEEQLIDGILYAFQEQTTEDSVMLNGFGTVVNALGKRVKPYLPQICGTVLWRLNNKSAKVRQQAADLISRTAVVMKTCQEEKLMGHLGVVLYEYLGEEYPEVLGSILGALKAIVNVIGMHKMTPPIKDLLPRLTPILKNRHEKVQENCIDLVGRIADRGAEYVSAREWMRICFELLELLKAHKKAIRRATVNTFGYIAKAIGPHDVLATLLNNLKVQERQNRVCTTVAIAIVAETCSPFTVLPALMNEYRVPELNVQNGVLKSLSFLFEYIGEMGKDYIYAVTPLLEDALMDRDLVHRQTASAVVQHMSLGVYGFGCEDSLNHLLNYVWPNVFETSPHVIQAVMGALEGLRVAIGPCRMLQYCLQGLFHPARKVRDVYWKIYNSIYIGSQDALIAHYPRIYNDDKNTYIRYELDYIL

B1: HTATSF1 (protein, UniProt O43719 1-755)
chain: MSGTNLDGNDEFDEQLRMQELYGDGKDGDTQTDAGGEPDSLGQQPTDTPYEWDLDKKAWFPKITEDFIATYQANYGFSNDGASSSTANVEDVHARTAEEPPQEKAPEPTDARKKGEKRKAESGWFHVEEDRNTNVYVSGLPPDITVDEFIQLMSKFGIIMRDPQTEEFKVKLYKDNQGNLKGDGLCCYLKRESVELALKLLDEDEIRGYKLHVEVAKFQLKGEYDASKKKKKCKDYKKKLSMQQKQLDWRPERRAGPSRMRHERVVIIKNMFHPMDFEDDPLVLNEIREDLRVECSKFGQIRKLLLFDRHPDGVASVSFRDPEEADYCIQTLDGRWFGGRQITAQAWDGTTDYQVEETSREREERLRGWEAFLNAPEANRGLRRSDSVSASERAGPSRARHFSEHPSTSKMNAQETATGMAFEEPIDEKKFEKTEDGGEFEEGASENNAKESSPEKEAEEGCPEKESEEGCPKRGFEGSCSQKESEEGNPVRGSEEDSPKKESKKKTLKNDCEENGLAKESEDDLNKESEEEVGPTKESEEDDSEKESDEDCSEKQSEDGSEREFEENGLEKDLDEEGSEKELHENVLDKELEENDSENSEFEDDGSEKVLDEEGSEREFDEDSDEKEEEEDTYEKVFDDESDEKEDEEYADEKGLEAADKKAEEGDADEKLFEESDDKEDEDADGKEVEDADEKLFEDDDSNEKLFDEEEDSSEKLFDDSDERGTLGGFGSVEEGPLSTGSSFILSSDDDDDDI
B2: U2AF1 (protein, UniProt Q01081 1-240)
chain: MAEYLASIFGTEKDKVNCSFYFKIGACRHGDRCSRLHNKPTFSQTIALLNIYRNPQNSSQSADGLRCAVSDVEMQEHYDEFFEEVFTEMEEKYGEVEEMNVCDNLGDHLVGNVYVKFRREEDAEKAVIDLNNRWFNGQPIHAELSPVTDFREACCRQYEMGECTRGGFCNFMHLKPISRELRRELYGRRRKKHRSRSRSRERRSRSRDRGRGGGGGGGGGGGGRERDRRRSRDRERSGRF

Molecular target: FLAG-SF3B1 K700E (UniProt O75533)
Assay: co-IP

Row | Binder | binding
1 | B1 | binds
2 | B2 | binds
